Laboratory results as given in PubChem BioAssay AID2417 (National Center for Advancing Translational Sciences (NCATS), 2010).
Screen size: about 140,000 compounds; about 4,300 (3.1%) were called active. Inconclusive results, whose numbers are uncertain, are shown with a selection of clear calls.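 Rule for the calls: active = readout at or below -70, meaning at least 70% loss of cells showing the perinucleolar compartment, a nuclear body marking cancer cells; inconclusive = readout between -30 and a set limit; inactive = the rest.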

Experiment: High Content Assay for Compounds that inhibit the Assembly of the Perinucleolar Compartment;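 note: plate controls were DMSO wells for no effect and camptothecin positive control wells for full effect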
Details: PC3M PTB-GFP, PNC prevalence imaging, 16 h; at 10 µM; hits give low values
Procedure, shortened: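 Compounds are pinned in duplicate onto adhered PC3M cells stably expressing GFP-tagged PTB and incubated 16 h at 37 C. Cells are then fixed, nuclei stained with Hoechst, and PNC-positive cells counted.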

| Structure (SMILES) | activity change (PNC), negative = inhibition |
| --- | --- |
| O=C(CCn1cccc1)Nc1ccccc1F | inconclusive: -71.1% |
| O=C(CN1C(=O)CSc2ccccc21)N1CCc2ccccc21 | active: -89.8% |
| C/C(=N\NC(=O)c1ccc(Cl)c(S(=O)(=O)Nc2ccccc2Cl)c1)c1ccncc1 | active: -83.3% |
| Cc1ccc2cc(C#N)c(SCC(=O)NCc3ccco3)nc2c1 | active: -82.4% |
| Cc1cc(C(=O)CN2CCCC(C)C2)c(C)n1-c1ccc(F)cc1 (configuration not stated) | inconclusive: -44.9% |
| CC(C)CNC(=O)CCCc1c[nH]c2ccccc12 | inactive: -3.42% |
| CCOC(=O)c1oc2ccc(CNC(C)(C)C)c(Cl)c2c1C | active: -119% |
| Cn1cnnc1SCC(=O)OCN1C(=O)c2ccccc2C1=O | inactive: -17.1% |
| Brc1c(CSc2nnc(-c3ccco3)o2)nc2ccccn12 | inconclusive: -38.9% |
| Cc1c(NS(=O)(=O)CC23CCC(CC2=O)C3(C)C)c(=O)n(-c2ccccc2)n1C (configuration not stated) | inconclusive: -57.7% |
| COc1ccc(C(=O)O/N=C(/C)c2cccs2)cc1 | inactive: -19.1% |
| Cc1ccc(NC(=S)NCCC(c2ccccc2)c2ccccc2)c(C)c1 | inconclusive: -48.1% |
| CCOc1c2ccc(C(=O)NCCCCc3ccccc3)cc2nn1C | inactive: 47.7% |
| CN(C)Cc1ccccc1Sc1ccc(Br)cc1 | inconclusive: -61% |
| CCCCN(C(=O)Nc1ccc(Cl)cc1)C1CCN(C(C)=O)CC1 | active: -94.7% |
| CCCOc1ccc(C(CC(=O)O)NC(=O)c2ccc3c(c2)OCO3)cc1 (configuration not stated) | inconclusive: -51.8% |
| CCc1c(C)c2cc(Cl)c(O)c(CN(C)C)c2oc1=O | inactive: 17.4% |
| O=C(Nc1ccccc1)N1N=C(c2cccs2)CC1c1cccs1 (configuration not stated) | active: -102% |
| COc1ccccc1OCC(=O)Nc1nnc(-c2ccco2)s1 | inactive: 36.9% |
| CC(=O)c1cccc(NC(=O)C2CCCN(S(C)(=O)=O)C2)c1 (configuration not stated) | inconclusive: -72.7% |
| CCCCN(C(=O)NC(=O)Nc1cc(C)ccc1C)S(C)(=O)=O | inconclusive: -75.9% |
| O=C(Cn1nc(-c2ccccc2)ccc1=O)NCC1CCCO1 (configuration not stated) | inconclusive: -43.4% |
| CCN(CC)S(=O)(=O)c1ccc(C)c(NC(=O)CSc2nc3ccc(C)cc3[nH]2)c1 | inconclusive: -58.1% |

| Structure (SMILES) | activity change (PNC), negative = inhibition |
| --- | --- |
| COCCn1c(=O)[nH]c(=O)c2c1nc(-c1ccc(-c3ccc(Cl)cc3[N+](=O)[O-])o1)n2Cc1ccccc1 | inconclusive: -36.9% |
| COC(=O)c1ccc(CN(C(C)=O)c2ccccc2)o1 | inactive: -11.8% |
| CCOC(=O)c1ccc(NC(=S)N(CCCN2CCCCCC2)Cc2ccco2)cc1 | inconclusive: -55.1% |
| Cc1cc(C(=O)COc2cccnc2[N+](=O)[O-])c(C)n1-c1ccccc1 | inconclusive: -36% |
| O=C(NC(c1ccccc1)c1ccccc1)c1ccc(S(=O)(=O)C(F)F)cc1 | inconclusive: -38.9% |
| Cc1cccc(/N=C/c2c(O)c3ccccc3oc2=O)n1 | inconclusive: -59.1% |
| N/C(Cc1ccc([N+](=O)[O-])cc1)=N\OC(=O)Cc1ccc(Cl)cc1 | inconclusive: -50.6% |
| Clc1ccccc1Nc1ncnc2c1nnn2Cc1ccccc1 | inconclusive: -62.1% |
| CCOC(=O)CSc1nnnn1-c1cc(OC)ccc1OC | inactive: -29.4% |
| Clc1ccc(-c2noc(CN3CCCC3)n2)cc1 | inconclusive: -56.8% |
| CC(C)(C)C1CCC2(CC1)SCC(=O)N2c1ccccc1 (configuration not stated) | inconclusive: -38.9% |
| COc1ccc(C(=O)CSc2nnc(-c3ccccc3)o2)cc1 | inconclusive: -73.4% |
| Cc1cc2n(n1)C(c1ccc(O)cc1)Nc1ccccc1-2 (configuration not stated) | inconclusive: -34.1% |
| O=C(NC1CC2CCC1C2)c1ccc(CN2CCOCC2)cc1 (configuration not stated) | inconclusive: -36.3% |
| CC(C)c1cc(-c2n[nH]c(=S)n2Cc2ccccc2)cs1 | inactive: 70.9% |
| CCN(CC)CCn1c(/N=C/c2cc(Br)ccc2O)nc2ccccc21 | inactive: 21.6% |
| S=c1[nH]nc(-c2cccc(Cl)c2)n1Cc1ccccc1 | inactive: 55.6% |
| COc1ccc(CC(=O)Nc2c3c(nn2-c2cccc(C)c2C)CS(=O)(=O)C3)cc1 | inconclusive: -35.7% |
| CN(C)S(=O)(=O)c1ccc(NC(=O)c2cc(-c3cccs3)nc3ccccc23)cc1 | inactive: 0.167% |
| N#Cc1c(NC(=O)c2nc3ncccn3n2)sc2c1CCCCC2 | inconclusive: -37% |
| O=C1CC(N2CCC(Cc3ccccc3)CC2)C(=O)N1CCc1ccccc1 (configuration not stated) | inactive: 28.1% |
| COC(=O)C1Sc2[nH]c(=O)sc2C(c2ccc(Cl)cc2)C1C(=O)OC (configuration not stated) | inactive: -8.13% |
| CCCCCn1c2nc3ccccc3nc2c2c(=O)n(CC(C)C)cnc21 | inconclusive: -32.3% |

| Structure (SMILES) | activity change (PNC), negative = inhibition |
| --- | --- |
| CCCn1c(Cc2ccccc2)nnc1SCC(=O)N1CCOCC1 | inconclusive: -31.9% |
| CC(=O)N1c2ccccc2NC2=C(C(=O)CCC2)C1c1ccc(F)cc1 (configuration not stated) | inconclusive: -37.1% |
| Cc1ccc2[nH]c3c(=O)n(CCCN4CCOCC4)cnc3c2c1 | inconclusive: -41.9% |
| CC1=C(C(=O)OC2CCCCCC2)C(c2ccc(C)o2)C2=C(CCCC2=O)N1 (configuration not stated) | inactive: 9.79% |
| O=C(N/N=C/c1ccc2c(c1)OCO2)c1ccccn1 | inactive: 106% |
| COC(=O)C1=C(N)OC2=C(C(=O)CCC2)C1c1cccs1 (configuration not stated) | inconclusive: -52.3% |
| CCN1C(=O)N(C)C2(c3ccccc3)N(C)C(=O)N(C)C12c1ccccc1 (configuration not stated) | inconclusive: -70.8% |
| COc1ccc(C(=O)Oc2ccc(=O)n(-c3ccccc3)n2)cc1 | inconclusive: -36% |
| CCCCNC(=O)NNC(=O)c1ccc(F)cc1 | inactive: -9.81% |
| O=C(COC(=O)c1cccs1)Nc1ccc(S(=O)(=O)N2CCOCC2)cc1 | inconclusive: -40.9% |
| Cc1cccc(NC(=S)N2N=CCC2c2ccccc2)c1 (configuration not stated) | inconclusive: -31.1% |
| CCOc1ccc(S(=O)(=O)N2CCN(C(=S)NCc3ccco3)CC2)cc1 | active: -86.6% |
| Cc1nc2ccc(NC(=O)c3cccs3)cc2c(=O)n1Cc1ccc(Cl)cc1 | inconclusive: -40.4% |
| CCn1ncc(C(=O)Nc2cccc(Cl)c2)c1C | active: -88.6% |
| CC(C)CC(=O)NC(=S)Nc1nc(-c2ccccc2)cs1 | inconclusive: -50.5% |
| Cn1nnnc1SCc1nnc(-c2ccc(F)cc2)o1 | inconclusive: -32.8% |
| Cc1ccc(NC(=O)C2CC(=O)N/C(=N/N=C/c3ccco3)S2)cc1 (configuration not stated) | inconclusive: -71.5% |
| Nc1nnc(SCC(=O)Nc2ccc3nc(SCC(=O)Nc4ccccc4)sc3c2)s1 | inconclusive: -38.8% |
| C=CCNC(=O)c1ccc2nccnc2c1 | inconclusive: -51.3% |
| Clc1ccc(CSc2nnc(-c3c[nH]c4ccccc34)o2)cc1 | inconclusive: -50.9% |
| O=S(=O)(NCC1CCCO1)c1ccc2c(c1)OCCO2 (configuration not stated) | inconclusive: -40.8% |
| O=C(OC1CCCCC1)c1ccc2c(c1)C1C=CCC1C(C(=O)O)N2 (configuration not stated) | inconclusive: -33.8% |
| COc1ccc(/C=N/c2oc(-c3ccccc3)cc2C#N)cc1 | inconclusive: -50.1% |

| Structure (SMILES) | activity change (PNC), negative = inhibition |
| --- | --- |
| O=C(NCc1ccccc1)c1ccc2c(c1)C(=O)N(Cc1ccncc1)C2=O | inactive: -4.59% |
| CCOc1ccc(CNC(=S)N/N=C/c2cccnc2)cc1 | inconclusive: -74.8% |
| CCOC(=O)N1CCN(C(=O)Cn2ccc3ccccc3c2=O)CC1 | inconclusive: -57.1% |
| CCCCOc1ccccc1NC(=O)CC1Nc2ccccc2NC1=O (configuration not stated) | inactive: 12.8% |
| COc1ccc(S(=O)(=O)N(CC(=O)NCc2cccnc2)c2ccc(F)cc2)cc1OC | inconclusive: -52% |
| COC(=O)CN(c1ccc2c(c1)OCCO2)S(=O)(=O)c1ccccc1 | inconclusive: -45.4% |
| CCC(=O)NCc1cc(-c2nn(C)c(=O)c3ccccc23)ccc1C | inactive: -29.4% |
| CCCC(=O)NCCCc1nc2ccccc2n1CCC | inconclusive: -34.5% |
| Nc1cc(=O)[nH]c(=S)n1-c1ccccc1 | inactive: 9.65% |
| O/N=C(\Cc1cscn1)c1ccc(O)cc1O | inconclusive: -45% |
| Cc1ccc(C(=O)CC(=O)c2cc(Cl)ccc2O)cc1 | inactive: 23.1% |
| Cc1ccc(NC(=O)c2cc(N3C(=O)C4CC=CCC4C3=O)ccc2N2CCOCC2)cc1Cl (configuration not stated) | inconclusive: -54.8% |
| CCOC(=O)C1=C(C)NC(C)=C(C(=O)OC)C1c1cccc(Cl)c1Cl (configuration not stated) | inconclusive: -45.2% |
| Cc1ccc(OCCNC(=O)/C=C/c2ccc([N+](=O)[O-])cc2)cc1C | inactive: 62.7% |
| Cn1c(=O)oc2cc(S(=O)(=O)N3CCC(C(=O)NCc4ccc(F)cc4)CC3)ccc21 | inconclusive: -64.6% |
| COc1ccc(C2C(C(=O)N3CCOCC3)c3ccccc3C(=O)N2c2ccc(OC)cc2)cc1 (configuration not stated) | inactive: 41.5% |
| Cc1ccc(/C(N)=N/OC(=O)c2cccc(F)c2)cc1 | inconclusive: -33.3% |
| O=C(Nc1ccc(O)c2c(=O)cc(-c3ccccc3Cl)oc12)c1cccc(Cl)c1 | active: -80% |
| Cc1ccc(-c2nn(CC(=O)NCc3ccco3)c(=O)c3ccccc23)cc1 | active: -111% |
| Nc1c(N=Nc2ccccc2F)c(=O)[nH]n1-c1ccccc1 | inactive: 7.77% |
| COc1ccc(Cn2nnc3c(=O)[nH]c(C4CCCN(C(=O)c5ccccc5)C4)nc32)cc1 (configuration not stated) | inactive: 43.6% |
| Cc1cc(S(=O)(=O)N2CCN=C2c2ccccc2)c(C)cc1Cl | inactive: -0.972% |
| COC(=O)[C@H]1C[C@@H]1[C@H](NC(=O)c1ccccc1)c1ccccc1 | inactive: 35.7% |

Single values from the results shown.
Value for Cc1ccc(NC(=O)c2cc(N3C(=O)C4CC=CCC4C3=O)ccc2N2CCOCC2)cc1Cl (configuration not stated) under activity change (PNC), negative = inhibition: inconclusive: -54.8%
Value for COC(=O)CN(c1ccc2c(c1)OCCO2)S(=O)(=O)c1ccccc1 under activity change (PNC), negative = inhibition: inconclusive: -45.4%
Value for Cc1ccc(C(=O)CC(=O)c2cc(Cl)ccc2O)cc1 under activity change (PNC), negative = inhibition: inactive: 23.1%
Value for COc1ccc(Cn2nnc3c(=O)[nH]c(C4CCCN(C(=O)c5ccccc5)C4)nc32)cc1 (configuration not stated) under activity change (PNC), negative = inhibition: inactive: 43.6%
Value for CCCCOc1ccccc1NC(=O)CC1Nc2ccccc2NC1=O (configuration not stated) under activity change (PNC), negative = inhibition: inactive: 12.8%
Value for COc1ccc(C2C(C(=O)N3CCOCC3)c3ccccc3C(=O)N2c2ccc(OC)cc2)cc1 (configuration not stated) under activity change (PNC), negative = inhibition: inactive: 41.5%
Value for CCC(=O)NCc1cc(-c2nn(C)c(=O)c3ccccc23)ccc1C under activity change (PNC), negative = inhibition: inactive: -29.4%
